Results published in paper PMC6199744, “Development of Chemical Proteomics for the Folateome and Analysis of the Kinetoplastid Folateome” (ACS Infectious Diseases, 2018).
Like-named read-outs stand apart in the source and are kept apart here. This continues a long series; more values of the same kind are listed elsewhere.

Tested on: T. brucei lysate proteins
Format: binding, Trypanosoma brucei

Structure (SMILES): CCCCCCOc1cccc(Cc2cnc(N)nc2N)c1 [compound 2]
- fold change (protein TB09.211.4760 METACASPASE 5, PUTATIVE, vehicle control = 1): 0.91
- fold change (protein TB427TMP.01.1090 HY[…], CONSERVED, vehicle control = 1): 1.29
- fold change (protein TB427TMP.01.2460 HY[…], CONSERVED, vehicle control = 1): 0.89
- fold change (protein TB427TMP.01.6180 HY[…], CONSERVED, vehicle control = 1): 0.98
- fold change (protein TB427TMP.02.0030 DYNEIN HEAVY CHAIN, PUTATIVE, vehicle control = 1): 0.93
- fold change (protein TB427TMP.02.2410 CLATHRIN COAT ASSEMBLY PROTEIN, PUTATIVE, vehicle control = 1): 0.93
- fold change (protein TB427TMP.02.4300 HY[…], CONSERVED, vehicle control = 1): 0.94
- fold change (protein TB427TMP.02.5280 GLYCEROL-3-PHOSPHATE DEHYDROGENASE (FAD-DEPENDENT), MITOCHONDRIAL, vehicle control = 1): 1.45
- fold change (protein TB427TMP.211.2150 POLYADENYLATE-BINDING PROTEIN 2 (PABP2), PUTATIVE, vehicle control = 1): 1.1
- fold change (protein TB427TMP.211.4550 60S RIBOSOMAL PROTEIN L12, PUTATIVE, vehicle control = 1): 1.4
- fold change (protein TB427TMP.211.4810 HY[…], CONSERVED, vehicle control = 1): 0.93
- fold change (protein TB427TMP.47.0011 HY[…], CONSERVED, vehicle control = 1): 0.93
- fold change (protein TB427.03.4260 HY[…], CONSERVED, vehicle control = 1): 1.1
- fold change (protein TB427.04.2060 HY[…], CONSERVED, vehicle control = 1): 0.88
- fold change (protein TB427.04.2340 HY[…], CONSERVED, vehicle control = 1): 0.99
- fold change (protein TB427.04.3740 FLAGELLAR […] PROTEIN, vehicle control = 1): 0.99
- fold change (protein TB427.04.5200 NUCLEOPORIN (NUP54/57), PUTATIVE, vehicle control = 1): 1.29
- fold change (protein TB427.04.560 DYNEIN HEAVY CHAIN, PUTATIVE, vehicle control = 1): 1
- fold change (protein TB427.06.3670 PAR[…] COMPONENT, PUTATIVE, vehicle control = 1): 0.99
- fold change (protein TB427.07.2770 HY[…], CONSERVED, vehicle control = 1): 1.1
- fold change (protein TB427.07.3160 DYNEIN HEAVY CHAIN, CYTOSOLIC, PUTATIVE, vehicle control = 1): 0.91
- fold change (protein TB427.08.1420 ACYL-COA DEHYDROGENASE, MIT[…], PUTATIVE, vehicle control = 1): 0.91
- fold change (protein TB427.08.1950 HY[…], CONSERVED, vehicle control = 1): 0.87
- fold change (protein TB427.08.4540 HY[…], CONSERVED, vehicle control = 1): 0.96
- fold change (protein TB427.10.14180 PROTEIN TRANSPORT PROTEIN SEC13, PUTATIVE, vehicle control = 1): 0.95
- fold change (protein TB427.10.1450 HY[…], CONSERVED, vehicle control = 1): 0.82
- fold change (protein TB427.10.14860 HY[…], CONSERVED, vehicle control = 1): 0.98
- fold change (protein TB427.10.14930 HY[…], CONSERVED, vehicle control = 1): 0.88
- fold change (protein TB427.10.15360 HY[…], CONSERVED, vehicle control = 1): 1
- fold change (protein TB427.10.4600 HY[…], CONSERVED, vehicle control = 1): 0.51
- fold change (protein TB927.10.12740 HY[…], CONSERVED,ZINC FINGER PROTEIN FAMILY MEMEBER, PUTATIVE, vehicle control = 1): 1.1
- fold change (protein TB927.10.14170 AQUAPORIN 9, PUTATIVE, vehicle control = 1): 0.94
- fold change (protein TB927.10.14820 MIT[…] PROTEIN, PUTATIVE, vehicle control = 1): 1.43
- fold change (protein TB927.10.6050 CLATHRIN HEAVY CHAIN, vehicle control = 1): 0.85
- fold change (protein TB927.2.1780 UDP-GLCNAC:PI A1-6 GLCNAC-TRANSFERASE, vehicle control = 1): 0.95
- fold change (protein TB927.3.5490 FLAGELLAR TRANSPORT PROTEIN, PUTATIVE, vehicle control = 1): 1.2
- fold change (protein TB927.6.2360 ADENOSINE KINASE, PUTATIVE, vehicle control = 1): 0.98
- fold change (protein TB927.6.4460 S-ADENOSYLMETHIONINE DECARBOXYLASE, vehicle control = 1): 0.91
- fold change (protein TB927.7.7040 METHYLTHIOADENOSINE PHOSPHORYLASE, PUTATIVE, vehicle control = 1): 0.77
- fold change (vs vehicle control, protein HA-UBIQUITIN (CZB00000046.1)): 0.79
- fold change (vs vehicle control, protein TB09.160.2360 POLY(A) EXPORT PROTEIN, PUTATIVE): 0.97
- fold change (vs vehicle control, protein TB09.211.0630 ACTIN A): 1
- fold change (vs vehicle control, protein TB11.01.3180 GUANINE NUCLEOTIDE-BINDING PROTEIN BETA SUBUNIT-LIKE PROTEIN): 0.96
- fold change (vs vehicle control, protein TB11.01.8740 PROTEIN PHOSPHATASE 4, PUTATIVE): 1.1
- fold change (vs vehicle control, protein TB427TMP.01.5000 HY[…], CONSERVED): 0.97
- fold change (vs vehicle control, protein TB427TMP.01.8470 DIHYDROLIPOYL DEHYDROGENASE): 0.72
- fold change (vs vehicle control, protein TB427TMP.160.2220 HY[…], CONSERVED): 1
- fold change (vs vehicle control, protein TB427TMP.160.4760 HY[…]): 0.89
- fold change (vs vehicle control, protein TB427TMP.211.4170 HY[…], CONSERVED): 0.94
- fold change (vs vehicle control, protein TB427.01.120 RETRO[…] SPOT (RHS) PROTEIN, PUTATIVE): 1.1
- fold change (vs vehicle control, protein TB427.02.4130 ENOYL-COA HYDRATASE/ENOYL-COA ISOMERASE/3-HYDROXYACYL-COA DEHYDROGENASE, PUTATIVE): 1.2
- fold change (vs vehicle control, protein TB427.02.5850 SMALL NUCLEAR RIBONUCLEOPROTEIN SMD2): 1.2
- fold change (vs vehicle control, protein TB427.03.1210 PROTEIN TRANSPORT PROTEIN SEC24): 1
- fold change (vs vehicle control, protein TB427.03.1790 PYRUVATE DEHYDROGENASE E1 BETA SUBUNIT, PUTATIVE): 0.85
- fold change (vs vehicle control, protein TB427.04.1660 MIT[…] PROTEIN, PUTATIVE): 0.94
- fold change (vs vehicle control, protein TB427.04.4300 HY[…], CONSERVED): 0.92
- fold change (vs vehicle control, protein TB427.06.1500 ALKYL-DIHYDR[…] SYNTHASE): 0.99
- fold change (vs vehicle control, protein TB427.06.2230 HY[…], CONSERVED): 1.1
- fold change (vs vehicle control, protein TB427.06.2250 RAC SERINE-THREONINE KINASE, PUTATIVE): 0.91
- fold change (vs vehicle control, protein TB427.06.3050 ALDEHYDE DEH[…], PUTATIVE): 0.99
- fold change (vs vehicle control, protein TB427.06.3500 ENDOSOMAL T[…] RME-8, PUTATIVE): 0.91
- fold change (vs vehicle control, protein TB427.06.4440 HY[…], CONSERVED): 0.96
- fold change (vs vehicle control, protein TB427.06.4480 VALYL-TRNA SYNTHETASE, PUTATIVE): 1.1
- fold change (vs vehicle control, protein TB427.07.4570 INOSINE-GUANINE […]): 0.96
- fold change (vs vehicle control, protein TB427.10.14950 RNA BINDING PROTEIN, PUTATIVE): 0.93
- fold change (vs vehicle control, protein TB927.10.12700 PYRUVATE DEHYDROGENASE E1 ALPHA SUBUNIT, PUTATIVE): 0.84
- fold change (vs vehicle control, protein TB927.10.8160 HY[…], CONSERVED): 0.88
- fold change (vs vehicle control, protein TB927.4.3820 HY[…], CONSERVED): 0.99
- fold change (vs vehicle control, protein TB927.6.1020 CYSTEINE PEPTIDASE PRECURSOR): 1
